# Primary screen of a compound library

Source: ChEMBL document CHEMBL3988442, “University of Dundee, Small-Polar-MMV Screening Library” (2021).

Each number is a percent effect as filed.
The controls that fix the scale are not given in the record; negative values are as filed.
The compounds are a random part of those screened.
Two or more numbers in one place are separate tests of the same structure; such repeats can differ widely.

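Assay of Toxoplasma gondii numbers, read through their beta-galactosidase reporter with a colour substrate. Tested at 10 µM. The record gives no direction; the compounds picked for IC50 retests had high values, so higher reads as fewer parasites. Of about 67,000 compounds tested this way, about 260 (0.38%) reached 50% or more in at least one test.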

With O=C(O)C(F)(F)F.O=C(O)C(F)(F)F.O=C(O)C(F)(F)F.[H][C@@]12C[C@@H](Oc3cccnc3)CN1CCN(Cc1cccc(C)n1)C2 the screen gave 1.408%. With CCc1noc(CS(=O)(=O)C/C=C/c2ccccc2)n1 the screen gave -3.368%. With COc1ccc(OCc2nc(C(=O)N3CC(O)C3)co2)cc1 the screen gave 2.539%. With c1csc(-c2noc(C3CCCOC3)n2)c1 (centres undefined) the screen gave -3.059%.

COc1ccc(NC(C)=O)cc1OCc1cccnc1 read -10.95%. For [H][C@@]12CS(=O)(=O)C[C@]1([H])N(C(=O)c1cc(C(C)C)on1)CCN2CC1CC1 the result was 2.776%. Result for CNS(=O)(=O)CC1CCCN1C(=O)c1ccc(C)c(C)c1 (centres undefined) was -2.271%. Cc1ccc2[nH]c(=O)c(CNCCCN3CCOCC3)cc2c1 gave -8.756%.

With O=C(Cc1cn2ccsc2n1)N1CCCC(n2cccn2)C1 (centres undefined) the screen gave 8.685%. O=C(O)C(F)(F)F.O=C(O)C(F)(F)F.c1cc(CN2CCC3(CCOCC3COCC3CC3)CC2)ccn1 (centres undefined) gave -5.598%. CN(C)C(=O)c1cnc2n1CCN(Cc1ccc3c(c1)OCO3)C2.O=C(O)C(F)(F)F gave -0.1428%. For CCc1nc(N2CCN(CCOC)CC2)c2cnn(C)c2n1 the result was -14.95%.

Result for Cc1cccnc1CC(C)Nc1ncc(C)c(N(C)C)n1 (centres undefined) was -5.868%. For CC(C)N1CCC(Cc2cncc(-c3cccc(C(=O)O)c3)n2)CC1 the result was 13.51%. CCN(C)C[C@@H]1CN(C(=O)c2cc(C(F)(F)F)n[nH]2)C[C@@H]1CO gave 18.17%. Result for O=C(Cc1nc(-c2ccncc2)n[nH]1)N1CCOCC1 was -11.96%.

Result for CCC(CNC(=O)CCn1cncn1)N1CCc2ccccc2C1 (centres undefined) was -0.8959%. For CC1CCc2nn(CCNC(=O)Cc3ccccc3F)c(=O)cc2C1 (centres undefined) the result was 2.394%. CC1=Nc2c(c(=O)[nH]n2C(C)C)C(c2ccsc2)S1 (centres undefined) read -16.11% and -2.047%. CCn1ncnc1C1CC(=O)NCc2nc(N)sc21 (centres undefined) read 2.662%.

O=C(Nc1ccccc1)C1CCN(C(=O)COc2ccccc2F)CC1 read -14.47%. Result for CC[C@]12CN3C[C@](C)(CN(C1)C3c1[nH]c(=O)[nH]c(=O)c1C)C2=O (some centres undefined) was 15.87%. Result for Cc1cc(C)c(CNC(=O)NCc2nnc3n2CCCC3)c(=O)[nH]1 was -6.798%. With Cc1cc(=O)n(CC(=O)NCCC(C)C)c(-c2cccc(Cl)c2)n1 the screen gave 13.84%.

Result for Cc1cc(-n2cncn2)ccc1C(=O)N(CC(F)(F)F)C(C)C was -2.761%. For Cc1nnc2n1CCN(C(=O)c1ccn(-c3cccc(F)c3)n1)C2 the result was -16.91%. CC(C)(C)c1n[nH]c(C2CN(C(=O)CCc3cscn3)CCO2)n1 (centres undefined) read -17.37%. O=C(NCC(O)c1ccc(F)cc1F)c1cccnc1O (centres undefined) gave -7.806%.

With CCC(O)CN1CCN(C(=O)CCSC)CC1 (centres undefined) the screen gave -3.006%. Result for CCN1CCCC1Cn1ccc2c(OC)c(OC)ccc2c1=O (centres undefined) was -0.1732%. With [H][C@]12CCN(C(=O)c3cc[nH]n3)CC[C@@]1([H])S(=O)(=O)N(CC)C2 the screen gave 15.69%. Result for CCNC(=O)[C@@H]1C[C@@H](n2cc(CN(CC)CC)nn2)CN1 was -2.703%.

Result for CC(NC(=O)c1cccs1)(C(N)=O)c1cccc(C(F)(F)F)c1 (centres undefined) was 22.27%. For c1cncc(CN2CC(Cc3nccc4cc[nH]c34)C2)c1 the result was -29.08%. For O=C(Cc1ccc(CO)cc1)N1CCN(c2ccccc2Cl)C(=O)C1 the result was -3.495%. Result for CC1CN(CC(=O)NCc2ccccn2)CCN1Cc1nccn1C (centres undefined) was 14.95%.

Result for O=C(O)C(F)(F)F.O=C(O)C(F)(F)F.c1cnc(N2CCCC3(CCN(c4ncccn4)C3)C2)nc1 (centres undefined) was 14.27%. Result for NC1C=C(C(F)(F)F)NC=C1c1ccc(Cl)cc1 (centres undefined) was 13.67%. Result for Cc1nnc(CN2CCC(c3nc4cc(Cl)ccc4o3)CC2)n1C was 15.55%. [H][C@@]12CCN(C(C)=O)[C@]1([H])C(=O)N(Cc1ccccc1)C(=O)N2 read -0.8494%.

Result for CCN(CC1CCOC1)C(=O)c1ccccc1NS(=O)(=O)CC (centres undefined) was 0.8161%. Cc1nc(CN2CCN(CC(=O)Nc3c(C)cccc3C)CC2)no1 gave -2.658%. COCCCNC(=O)c1cc(-c2ccc(OC)cc2)nn1C gave -4.639%. With CN(CCc1cccs1)C(=O)Nc1cccc(S(C)(=O)=O)c1 the screen gave -6.296%.

With CN1CC(=O)N(c2ccsc2)CC12CCN(C(=O)N1CCCC1)C2.O=C(O)C(F)(F)F (centres undefined) the screen gave -10.88%. COc1cccc2c1OCC(CNC(=O)COCC(F)(F)C(F)F)C2 (centres undefined) gave -5.382%. CCC(Nc1nnnn1-c1ccccc1)C(=O)Nc1nc(C)cs1 (centres undefined) gave 19.3%. CC(=O)N(Cc1ccsc1)c1ccccc1 read 7.744%.

With CN(C)C(=O)N1CCn2nc(CNC(=O)CCC(F)(F)F)cc2C1 the screen gave -5.292%. Result for Cc1nc(CNC(=O)CC2C(=O)NCCN2Cc2ccccc2C)n[nH]1 (centres undefined) was 1.679%. With [H][C@]12CC[C@@]3(N=C(CC)N(CC4CC4)C3=O)[C@@]1([H])CN(S(=O)(=O)CC(C)C)C2 the screen gave -1.129%.

Some entries from above, unchanged:

{"smiles": "CN1CC(=O)N(c2ccsc2)CC12CCN(C(=O)N1CCCC1)C2.O=C(O)C(F)(F)F", "stereo": "centres undefined", "effect": -10.88}
{"smiles": "O=C(NCC(O)c1ccc(F)cc1F)c1cccnc1O", "stereo": "centres undefined", "effect": -7.806}
{"smiles": "CC1CN(CC(=O)NCc2ccccn2)CCN1Cc1nccn1C", "stereo": "centres undefined", "effect": 14.95}
{"smiles": "Cc1nnc(CN2CCC(c3nc4cc(Cl)ccc4o3)CC2)n1C", "effect": 15.55}